# Some of the results follow.
# B1: MFG-E8 (Homo sapiens), Q08431 (protein)
# chain: MPRPRLLAALCGALLCAPSLLVALDICSKNPCHNGGLCEEISQEVRGDVFPSYTCTCLKGYAGNHCETKCVEPLGLENGNIANSQIAASSVRVTFLGLQHWVPELARLNRAGMVNAWTPSSNDDNPWIQVNLLRRMWVTGVVTQGASRLASHEYLKAFKVAYSLNGHEFDFIHDVNKKHKEFVGNWNKNAVHVNLFETPVEAQYVRLYPTSCHTACTLRFELLGCELNGCANPLGLKNNSIPDKQITASSSYKTWGLHLFSWNPSYARLDKQGNFNAWVAGSYGNDQWLQVDLGSSKEVTGIITQGARNFGSVQFVASYKVAYSNDSANWTEYQDPRTGSSKIFPGNWDNHSHKKNLFETPILARYVRILPVAWHNRIALRLELLGC
# Tests used:
# Assay in all cases: glycan array binding signal (z-score within array); higher = stronger binding
# Details in all cases: glycan notation: IUPAC condensed, linker removed
# [1] = molecular target: Fuc(a1-2)[Gal(a1-3)]Gal(b1-4)Glc
# Method in brief: (§1)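 Arrays were curated from the Consortium for Functional Glycomics database, 3228 in total, and kept only where the protein sequence was available. Binding is expressed as a within-array Z-score. This score was averaged across arrays of the same protein sequence at different concentrations or buffers and across linkers, and negative values can be read as non-binding.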
# [2] = molecular target: Fuc(a1-2)[Gal(a1-3)]Gal(b1-4)GlcNAc
# Method in brief: as §1
# [3] = molecular target: Fuc(a1-2)[Gal(a1-3)]Gal(b1-4)GlcNAc(b1-2)Man(a1-3)[Fuc(a1-2)[Gal(a1-3)]Gal(b1-4)GlcNAc(b1-2)Man(a1-6)]Man(b1-4)GlcNAc(b1-4)GlcNAc
# Method in brief: as §1
# [4] = molecular target: Fuc(a1-2)[Gal(a1-3)]Gal(b1-4)GlcNAc(b1-2)Man(a1-3)[Fuc(a1-2)[Gal(a1-3)]Gal(b1-4)GlcNAc(b1-2)Man(a1-6)]Man(b1-4)GlcNAc(b1-4)[Fuc(a1-6)]GlcNAc
# Method in brief: as §1
# [5] = molecular target: Fuc(a1-2)[Gal(a1-3)]Gal(b1-4)GlcNAc(b1-3)GalNAc
# Method in brief: as §1
# [6] = molecular target: Fuc(a1-2)[Gal(a1-3)]Gal(b1-4)[Fuc(a1-3)]Glc
# Method in brief: as §1
# [7] = molecular target: Fuc(a1-2)[Gal(a1-3)]Gal(b1-4)[Fuc(a1-3)]GlcNAc
# Method in brief: as §1
# [8] = molecular target: Fuc(a1-2)[Gal(a1-3)]Gal(b1-4)[Fuc(a1-3)]GlcNAc(b1-3)GalNAc
# Method in brief: as §1
# [9] = molecular target: Fuc(a1-2)[Gal(a1-4)]Gal(b1-4)GlcNAc
# Method in brief: as §1
# [10] = molecular target: Fuc(a1-2)[GalNAc(a1-3)]Gal
# Method in brief: as §1
# [11] = molecular target: Fuc(a1-2)[GalNAc(a1-3)]Gal(b1-3)GalNAc(a1-3)[Fuc(a1-2)]Gal(b1-4)GlcNAc
# Method in brief: as §1
# [12] = molecular target: Fuc(a1-2)[GalNAc(a1-3)]Gal(b1-3)GlcNAc
# Method in brief: as §1
# [13] = molecular target: Fuc(a1-2)[GalNAc(a1-3)]Gal(b1-3)GlcNAc(b1-2)Man(a1-3)[Fuc(a1-2)[GalNAc(a1-3)]Gal(b1-3)GlcNAc(b1-2)Man(a1-6)]Man(b1-4)GlcNAc(b1-4)GlcNAc
# Method in brief: as §1
# [14] = molecular target: Fuc(a1-2)[GalNAc(a1-3)]Gal(b1-3)GlcNAc(b1-2)Man(a1-3)[Fuc(a1-2)[GalNAc(a1-3)]Gal(b1-3)GlcNAc(b1-2)Man(a1-6)]Man(b1-4)GlcNAc(b1-4)[Fuc(a1-6)]GlcNAc
# Method in brief: as §1
# [15] = molecular target: Fuc(a1-2)[GalNAc(a1-3)]Gal(b1-3)GlcNAc(b1-3)GalNAc
# Method in brief: as §1
# [16] = molecular target: Fuc(a1-2)[GalNAc(a1-3)]Gal(b1-4)Glc
# Method in brief: as §1
# [17] = molecular target: Fuc(a1-2)[GalNAc(a1-3)]Gal(b1-4)GlcNAc
# Method in brief: as §1
# [18] = molecular target: Fuc(a1-2)[GalNAc(a1-3)]Gal(b1-4)GlcNAc(b1-2)Man(a1-3)[Fuc(a1-2)[GalNAc(a1-3)]Gal(b1-4)GlcNAc(b1-2)Man(a1-6)]Man(b1-4)GlcNAc(b1-4)GlcNAc
# Method in brief: as §1
# [19] = molecular target: Fuc(a1-2)[GalNAc(a1-3)]Gal(b1-4)GlcNAc(b1-2)Man(a1-3)[Fuc(a1-2)[GalNAc(a1-3)]Gal(b1-4)GlcNAc(b1-2)Man(a1-6)]Man(b1-4)GlcNAc(b1-4)[Fuc(a1-6)]GlcNAc
# Method in brief: as §1
# [20] = molecular target: Fuc(a1-2)[GalNAc(a1-3)]Gal(b1-4)GlcNAc(b1-3)Gal(b1-4)GlcNAc
# Method in brief: as §1
# [21] = molecular target: Fuc(a1-2)[GalNAc(a1-3)]Gal(b1-4)GlcNAc(b1-3)Gal(b1-4)GlcNAc(b1-3)Gal(b1-4)GlcNAc
# Method in brief: as §1
# [22] = molecular target: Fuc(a1-2)[GalNAc(a1-3)]Gal(b1-4)GlcNAc(b1-3)GalNAc
# Method in brief: as §1
# [23] = molecular target: Fuc(a1-2)[GalNAc(a1-3)]Gal(b1-4)[Fuc(a1-3)]GlcNAc
# Method in brief: as §1
# [24] = molecular target: Fuc(a1-2)[GalNAc(a1-3)]Gal(b1-4)[Fuc(a1-3)]GlcNAc(b1-3)GalNAc
# Method in brief: as §1
# [25] = molecular target: Fuc(a1-2)[GalNAc(a1-4)]Gal(b1-4)GlcNAc
# Method in brief: as §1
# [26] = molecular target: Fuc(a1-2)[GalNAc(b1-3)]Gal
# Method in brief: as §1
# Fuc(a1-3)GlcNAc = molecular target: Fuc(a1-3)GlcNAc
# Method in brief: as §1
# [27] = molecular target: Fuc(a1-3)[Gal(b1-4)]Glc6S
# Method in brief: as §1
# [28] = molecular target: Fuc(a1-3)[Gal(b1-4)]GlcNAc
# Method in brief: as §1
# [29] = molecular target: Fuc(a1-3)[Gal(b1-4)]GlcNAc(b1-2)Man(a1-3)[Fuc(a1-3)[Gal(b1-4)]GlcNAc(b1-2)Man(a1-6)]Man(b1-4)GlcNAc(b1-4)GlcNAc
# Method in brief: as §1
# [30] = molecular target: Fuc(a1-3)[Gal(b1-4)]GlcNAc(b1-2)Man(a1-3)[Fuc(a1-3)[Gal(b1-4)]GlcNAc(b1-2)Man(a1-6)]Man(b1-4)GlcNAc(b1-4)[Fuc(a1-6)]GlcNAc
# Method in brief: as §1
# [31] = molecular target: Fuc(a1-3)[Gal(b1-4)]GlcNAc(b1-3)Gal(b1-3)[Fuc(a1-4)]GlcNAc
# Method in brief: as §1
# [32] = molecular target: Fuc(a1-3)[Gal(b1-4)]GlcNAc(b1-3)GalNAc
# Method in brief: as §1
# [33] = molecular target: Fuc(a1-3)[Gal(b1-4)]GlcNAc(b1-4)Gal(b1-4)[Fuc(a1-3)]GlcNAc
# Method in brief: as §1
# [34] = molecular target: Fuc(a1-3)[Gal(b1-4)]GlcNAc(b1-4)Gal(b1-4)[Fuc(a1-3)]GlcNAc(b1-4)Gal(b1-4)[Fuc(a1-3)]GlcNAc
# Method in brief: as §1
# [35] = molecular target: Fuc(a1-3)[Gal(b1-4)]GlcNAc(b1-6)GalNAc
# Method in brief: as §1
# [36] = molecular target: Fuc(a1-3)[Gal(b1-4)]GlcNAc(b1-6)[Gal(b1-3)GlcNAc(b1-3)]Gal(b1-4)Glc
# Method in brief: as §1
# [37] = molecular target: Fuc(a1-3)[Gal(b1-4)]GlcNAc(b1-6)[Neu5Ac(a2-3)Gal(b1-3)]GalNAc
# Method in brief: as §1
# [38] = molecular target: Fuc(a1-3)[Gal(b1-4)]GlcNAc6S
# Method in brief: as §1
# [39] = molecular target: Fuc(a1-3)[Gal3S(b1-4)]GlcNAc
# Method in brief: as §1
# [40] = molecular target: Fuc(a1-3)[Gal3S(b1-4)]GlcNAc6S
# Method in brief: as §1
# [41] = molecular target: Fuc(a1-3)[GalNAc(b1-4)]GlcNAc
# Method in brief: as §1
# Fuc(a1-4)GlcNAc = molecular target: Fuc(a1-4)GlcNAc
# Method in brief: as §1
# Fuc(b1-3)GlcNAc = molecular target: Fuc(b1-3)GlcNAc
# Method in brief: as §1
# Gal(a1-2)Gal = molecular target: Gal(a1-2)Gal
# Method in brief: as §1
binder,measurement,setting,value
B1,glycan array binding signal (z-score),[1],-0.686
same,glycan array binding signal (z-score),[2],-0.715
same,glycan array binding signal (z-score),[3],1.34
same,glycan array binding signal (z-score),[4],-0.651
same,glycan array binding signal (z-score),[5],-0.553
same,glycan array binding signal (z-score),[6],-0.687
same,glycan array binding signal (z-score),[7],-0.307
same,glycan array binding signal (z-score),[8],1.66
same,glycan array binding signal (z-score),[9],-0.762
same,glycan array binding signal (z-score),[10],-0.746
same,glycan array binding signal (z-score),[11],-0.024
same,glycan array binding signal (z-score),[12],-0.635
same,glycan array binding signal (z-score),[13],1.38
same,glycan array binding signal (z-score),[14],0.357
same,glycan array binding signal (z-score),[15],0.634
same,glycan array binding signal (z-score),[16],-0.52
same,glycan array binding signal (z-score),[17],-0.524
same,glycan array binding signal (z-score),[18],0.369
same,glycan array binding signal (z-score),[19],-0.617
same,glycan array binding signal (z-score),[20],1.74
same,glycan array binding signal (z-score),[21],0.291
same,glycan array binding signal (z-score),[22],-0.702
same,glycan array binding signal (z-score),[23],0.041
same,glycan array binding signal (z-score),[24],1.58
same,glycan array binding signal (z-score),[25],-0.634
same,glycan array binding signal (z-score),[26],-0.498
same,glycan array binding signal (z-score),Fuc(a1-3)GlcNAc,-0.499
same,glycan array binding signal (z-score),[27],-0.53
same,glycan array binding signal (z-score),[28],-0.5
same,glycan array binding signal (z-score),[29],-0.086
same,glycan array binding signal (z-score),[30],1.41
same,glycan array binding signal (z-score),[31],-0.607
same,glycan array binding signal (z-score),[32],0.876
same,glycan array binding signal (z-score),[33],-0.681
same,glycan array binding signal (z-score),[34],-0.486
same,glycan array binding signal (z-score),[35],0.336
same,glycan array binding signal (z-score),[36],-0.297
same,glycan array binding signal (z-score),[37],0.892
same,glycan array binding signal (z-score),[38],-0.161
same,glycan array binding signal (z-score),[39],-0.035
same,glycan array binding signal (z-score),[40],0.798
same,glycan array binding signal (z-score),[41],-0.015
same,glycan array binding signal (z-score),Fuc(a1-4)GlcNAc,-0.75
same,glycan array binding signal (z-score),Fuc(b1-3)GlcNAc,-0.777
same,glycan array binding signal (z-score),Gal(a1-2)Gal,-0.558

# Three entries from above, as tab-separated lines.
binder	measurement	setting	value
B1	glycan array binding signal (z-score)	[21]	0.291
same	glycan array binding signal (z-score)	[22]	-0.702
same	glycan array binding signal (z-score)	[23]	0.041

# — the supplement of paper PMC8728848
